According to patent US9655980B2, “Theranostic platform for targeted cancer therapy and drug delivery monitoring” (University of Pittsburgh—Of the Commonwealth System of …, priority 2012, dated 2017):
Some entries share one result that the patent states for a list of compounds. At least one structure is not confirmed: it was looked up by name or label, or the drawing left a doubt.

System: wild-type mouse malignant astrocytoma DBT (wt-DBT) cells
Experiment: In vitro cytotoxicity, hemocytometer-based trypan blue dye exclusion
Format: cell-based
Conditions: 2×10^−7 and 1×10^−5 M, 24 h
From the text: FIG. 4 is a graph showing the results cell viability tests of QR-G1-COOH and QR-G2-COOH on the wt-DBT cell line. Values are presented as mean±standard deviation.
The in vitro cytotoxicity of QR-G1-COOH and QR-G2-COOH against wild-type mouse malignant astrocytoma DBT (wt-DBT) cells was investigated using a hemocytometer-based trypan blue dye exclusion method.

SMILES | cell viability
CC(C)c1cccc(C(C)C)c1N1C(=O)c2cc(Oc3ccc(COC(=O)CCC(=O)NC(CCC(=O)O)(CCC(=O)O)CCC(=O)O)cc3)c3c4ccc5c6ccc7c8c(Oc9ccc(COC(=O)CCC(=O)NC(CCC(=O)O)(CCC(=O)O)CCC(=O)O)cc9)cc9c%10c(cc(Oc%11ccc(COC(=O)CCC(=O)NC(CCC(=O)O)(CCC(=O)O)CCC(=O)O)cc%11)c(c%11ccc(c%12ccc(c%13c(Oc%14ccc(COC(=O)CCC(=O)NC(CCC(=O)O)(CCC(=O)O)CCC(=O)O)cc%14)cc(c2c3%13)C1=O)c4c5%12)c6c7%11)c%108)C(=O)N(c1c(C(C)C)cccc1C(C)C)C9=O [QR-G1-COOH] | more than 97%
CC(C)c1cccc(C(C)C)c1N1C(=O)c2cc(Oc3ccc(COC(=O)CCC(=O)NC(CCC(=O)NC(CCC(=O)O)(CCC(=O)O)CCC(=O)O)(CCC(=O)NC(CCC(=O)O)(CCC(=O)O)CCC(=O)O)CCC(=O)NC(CCC(=O)O)(CCC(=O)O)CCC(=O)O)cc3)c3c4ccc5c6ccc7c8c(Oc9ccc(COC(=O)CCC(=O)NC(CCC(=O)NC(CCC(=O)O)(CCC(=O)O)CCC(=O)O)(CCC(=O)NC(CCC(=O)O)(CCC(=O)O)CCC(=O)O)CCC(=O)NC(CCC(=O)O)(CCC(=O)O)CCC(=O)O)cc9)cc9c%10c(cc(Oc%11ccc(COC(=O)CCC(=O)NC(CCC(=O)NC(CCC(=O)O)(CCC(=O)O)CCC(=O)O)(CCC(=O)NC(CCC(=O)O)(CCC(=O)O)CCC(=O)O)CCC(=O)NC(CCC(=O)O)(CCC(=O)O)CCC(=O)O)cc%11)c(c%11ccc(c%12ccc(c%13c(Oc%14ccc(COC(=O)CCC(=O)NC(CCC(=O)NC(CCC(=O)O)(CCC(=O)O)CCC(=O)O)(CCC(=O)NC(CCC(=O)O)(CCC(=O)O)CCC(=O)O)CCC(=O)NC(CCC(=O)O)(CCC(=O)O)CCC(=O)O)cc%14)cc(c2c3%13)C1=O)c4c5%12)c6c7%11)c%108)C(=O)N(c1c(C(C)C)cccc1C(C)C)C9=O [QR-G2-COOH] | more than 97%
